IC50 data for one compound are collected here from US8324186B2, “4-azetidinyl-1-heteroatom linked-cyclohexane antagonists of CCR2” (Janssen Pharmaceutica N.V., priority 2009, dated 2012).

Amino acid sequences for entries named in this document (tags omitted). A change or cut given only in a name is not applied to a line headed by its entry.
UniProt P41597: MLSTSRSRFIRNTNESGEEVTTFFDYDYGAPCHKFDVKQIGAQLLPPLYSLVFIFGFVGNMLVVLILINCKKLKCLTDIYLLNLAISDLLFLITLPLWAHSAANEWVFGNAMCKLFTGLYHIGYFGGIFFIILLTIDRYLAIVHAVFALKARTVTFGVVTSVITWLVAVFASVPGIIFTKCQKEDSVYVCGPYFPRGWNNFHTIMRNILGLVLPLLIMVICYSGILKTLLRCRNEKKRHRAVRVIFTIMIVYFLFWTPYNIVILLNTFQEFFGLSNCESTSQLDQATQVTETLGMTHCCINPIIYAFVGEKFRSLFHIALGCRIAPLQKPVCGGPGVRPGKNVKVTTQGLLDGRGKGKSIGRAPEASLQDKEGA

By IC50 is commonly meant the concentration at which inhibition is half-maximal.

For this assay, the target named is T1, CCR2 (Homo sapiens, UniProt P41597).
T1 construct: host or cells: THP-1 human monocytic cells
The experiment in a line: MCP-1 Receptor Binding Assay in THP-1 Cells (125I-MCP-1 displacement). To be noted: 0.5 nM 125I labeled MCP-1, 2 hours at 30° C., read-out: CCR2 Binding, Inhibition of MCP-1 Binding IC50. The method, then:
Compounds of the invention were subjected to various representative biological tests. The results of these tests are intended to illustrate the invention in a non-limiting fashion. MCP-1 Receptor Binding Assay in THP-1 Cells
Human monocytic cell line THP-1 cells were obtained from American Type Culture Collection (Manassas, Va., USA). The THP-1 cells were grown in RPMI-1640 (RPMI: Roswell Park Memorial Institute Medium-cell culture growth media) supplemented with 10% fetal bovine serum in a humidified 5% CO2 atmosphere at 37° C. The cell density was maintained […].
THP-1 (cells were incubated with 0.5 nM ^125I labeled MCP-1 (Perkin-Elmer Life Sciences, Inc. Boston, Mass.) in the presence of varying concentrations of either unlabeled MCP-1 (R & D Systems, Minneapolis, Minn.) or test compound for 2 hours at 30° C. in a 96 well plate. Cells were then harvested onto a filter plate, dried, and 20 μL of Microscint 20 was added to each well. Plates were counted in a TopCount NXT, Microplate Scintillation & Luminescence Counter (Perkin-Elmer Life Sciences, Inc. Boston, Mass.). Blank values (buffer only) were subtracted from all values and drug treated values were compared to vehicle treated values. 1 μM cold MCP-1 was used for nonspecific binding.
Table 1 lists IC50 values for inhibition of MCP-1 binding to CCR2 obtained for test compounds of the invention. […]

On to `Cc1cccnc1OC1CCC(N2CC(NC(=O)CNC(=O)c3cccc(C(F)(F)F)c3)C2)CC1` (single isomer, unassigned) [Example 17a, N-({1-[4-(3-Methyl-pyridin-2-yloxy)-cyclohexyl]-azetidin-3-ylcarbamoyl}-methyl)-3-trifluoromethyl-benzamide], for which the IC50 came out at 2860 nM.
